# In PMC7819943, “Rice protein-binding microarrays: a tool to detect cis-acting elements near promoter regions in rice”:
# Amino acid sequences for entries named in this document (tags omitted).
# UniProt Q0JBA9, entry or part of it: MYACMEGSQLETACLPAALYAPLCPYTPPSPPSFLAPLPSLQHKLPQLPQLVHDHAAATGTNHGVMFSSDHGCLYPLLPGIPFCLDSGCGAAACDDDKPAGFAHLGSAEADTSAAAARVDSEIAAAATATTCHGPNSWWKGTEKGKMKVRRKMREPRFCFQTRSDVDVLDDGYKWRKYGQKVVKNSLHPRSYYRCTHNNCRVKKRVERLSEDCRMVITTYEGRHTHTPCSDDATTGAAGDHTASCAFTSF
# The list shows a part of the results.
# Biological target: OsWRKY34 (Oryza sativa, UniProt Q0JBA9 1-250)
# Experiment: protein-binding microarray (RPBM); PBS, 2% BSA, 51.3 ng/ul salmon testes DNA, 50 uM zinc acetate, 200 nM TF, 25 C, 1 h; high values mean tight binding
# Conditions: protein: recombinant; tags: N-terminal polyhistidine and DsRed monomer fusion (pET32a); label: CyDye5-dUTP incorporated in the synthesized complementary strand; 3' TTTTT single-stranded linker to array surface; dsDNA, one strand shown
# Summary of the method: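 A custom Agilent array was converted to double-stranded form by primer extension with Cy5-dUTP and blocked with 2% BSA. Protein at 200 nM in PBS with 2% BSA, salmon testes DNA and 50 µM zinc acetate was applied for 1 h at 25 °C, followed by washing. The proteins were polyhistidine–DsRed N-terminal fusions of transcription factors, expressed in E. coli BL21-CodonPlus and Ni–NTA-purified. The binding signal is per-feature fluorescence intensity (arbitrary units) from an Axon 4000B scanner.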
row,Sequence,binding signal
1,GCCACACATTGCATCATCTACTGTAGGACTAAATCAATCTCGGAGTCACCTAGTGCAG,9360 fluorescence intensity (a.u.)
2,CTTGACCCTGCATGTTCATCATGTGCAGCATACATATATACGGAGTCACCTAGTGCAG,9640 fluorescence intensity (a.u.)
3,TCTCGCTCGTTTTACCGCAGCATTTTGTTGTTGCTCTAGCCGGAGTCACCTAGTGCAG,8620 fluorescence intensity (a.u.)
4,CTGCGTCGCCGTCTCCGGCGCCATGCTCGTCCTGCTCCTCCGGAGTCACCTAGTGCAG,9850 fluorescence intensity (a.u.)
5,TTGTACTATTGGGTTCTAGATCTAACCTTCCCATGTGCTTCGGAGTCACCTAGTGCAG,8440 fluorescence intensity (a.u.)
6,CTGAGCACGTCGCTACGCACAGCTTCTGCCTGAATTTCGTCGGAGTCACCTAGTGCAG,8670 fluorescence intensity (a.u.)
7,TGCTTTGGGACCACTCCCTCTCTCTTTCTCTCTCTCACTTCGGAGTCACCTAGTGCAG,10200 fluorescence intensity (a.u.)
8,TAACTTTTCCATTGTGTCGTTCCAATTTCAACTAAACTTCCGGAGTCACCTAGTGCAG,10300 fluorescence intensity (a.u.)
9,CCAACGGGAGGCCTGCAAAATTGTCGCGATGTGCCCCTTCCGGAGTCACCTAGTGCAG,8250 fluorescence intensity (a.u.)
10,CATCCGCCATCTCATCTAATCTCATCCGTCCATCGCTATCCGGAGTCACCTAGTGCAG,8220 fluorescence intensity (a.u.)
11,TCTTTTTCGGAAGTTTTTTTTTTCTTCCCCTCTCGTTCTCCGGAGTCACCTAGTGCAG,8160 fluorescence intensity (a.u.)
12,ACCTTTCCTTTCATCTCTTCCGCTGGTTTTGTGGGATATTCGGAGTCACCTAGTGCAG,12800 fluorescence intensity (a.u.)
13,TTTCGATACCGTTTTCATTTTATTCTTTACTGTTTTCGATCGGAGTCACCTAGTGCAG,10500 fluorescence intensity (a.u.)
14,ACATTCCCTTGTTGTTTCCTTGTCATCTAAATTGTTATAACGGAGTCACCTAGTGCAG,12400 fluorescence intensity (a.u.)
15,TGGGTGGTGTTGGTTTTGCATGGTAGACGCGGGGTCCGATCGGAGTCACCTAGTGCAG,18400 fluorescence intensity (a.u.)
16,GGGTAGTAGTCAGCTACTCGAAGTAGGGTTAGGTTCATAGCGGAGTCACCTAGTGCAG,8820 fluorescence intensity (a.u.)
17,CTTCGCTTCTTCTGCCTCTGCAGCAATGCTATGTTTAATTCGGAGTCACCTAGTGCAG,11100 fluorescence intensity (a.u.)
18,TCTGTCCCATCACCAGAACATTTTGGCGTGTTATACGTCGCGGAGTCACCTAGTGCAG,8350 fluorescence intensity (a.u.)
19,TGGTTTATCTAACTATCTTGGTCTAACTGCCAACATCTTCCGGAGTCACCTAGTGCAG,9550 fluorescence intensity (a.u.)
20,GGTTAATTTCTAGGGTATGGTGATGGTAATGTTGCGGCGACGGAGTCACCTAGTGCAG,10600 fluorescence intensity (a.u.)
21,TTTTGACCAACGTTTGACTATTCGTTTTATTCAAATTTTTCGGAGTCACCTAGTGCAG,9930 fluorescence intensity (a.u.)
22,TTGCTTTATACTCCTTCCGTTCCAAAATGACCATCGTATACGGAGTCACCTAGTGCAG,8140 fluorescence intensity (a.u.)
23,TCGGGTTAGAGCCTCTCTCTCTCTCTCTCTCTCTCTCTCTCGGAGTCACCTAGTGCAG,9360 fluorescence intensity (a.u.)
24,ATCAAGATAGTTCGGCCCATCCTAGCTTTTAGTCCATCACCGGAGTCACCTAGTGCAG,8150 fluorescence intensity (a.u.)
25,TGGACCGTGGTTTTGGCTGCTCCTCCGGTTCGCCGGCGGCCGGAGTCACCTAGTGCAG,8120 fluorescence intensity (a.u.)
26,CAATGGTATATTAATCCTGCCATGTTACAAATCAGCGCTACGGAGTCACCTAGTGCAG,8100 fluorescence intensity (a.u.)
27,TCCTCTTCCCACGCGCCGCCGCCGCCGCCGCCGCTGCCGCCGGAGTCACCTAGTGCAG,10200 fluorescence intensity (a.u.)

row,Sequence,binding signal
1,ATAGAGCTTTAAATGTATTTGTGTAGTTTATTTCACATATCGGAGTCACCTAGTGCAG,8730 fluorescence intensity (a.u.)
2,CGCTCACTCGGTTTGGTTTGGTTTGGATTGTATTGGGTTGCGGAGTCACCTAGTGCAG,39200 fluorescence intensity (a.u.)
3,GTTTATGTACCCCGGCCGGTCCTGGACAGGGATTTTAATGCGGAGTCACCTAGTGCAG,9640 fluorescence intensity (a.u.)
4,TACCATATCATGCTATTTCACTTCATTTAGAAATGAATGCCGGAGTCACCTAGTGCAG,8420 fluorescence intensity (a.u.)
5,CCGGATTAGACCTACATTACCATTCGAGCAACAACTTTCCCGGAGTCACCTAGTGCAG,9020 fluorescence intensity (a.u.)
6,AGCAAGCCACTCGCAAATTTTCGCATTTTTTCTTTGCCGCCGGAGTCACCTAGTGCAG,8310 fluorescence intensity (a.u.)
7,TCTCCATGTCACGCCGGCTGCCACCACCACGGTATAAAATCGGAGTCACCTAGTGCAG,8990 fluorescence intensity (a.u.)
8,TAGCTCCATCGATCGCCCCGGCTCAACACGATCACAATCCCGGAGTCACCTAGTGCAG,8800 fluorescence intensity (a.u.)
9,CTATACTACTCATTCCGTCTTAAAATACAAATACTTTTAGCGGAGTCACCTAGTGCAG,8210 fluorescence intensity (a.u.)
10,CAAGCTAAGTCCAGCTCGTGATGCTCATTCTCTCAGACTGCGGAGTCACCTAGTGCAG,8170 fluorescence intensity (a.u.)
11,TTTCGAATGTACTTTCCTATGATTATGTTCTACAAAGGTGCGGAGTCACCTAGTGCAG,8440 fluorescence intensity (a.u.)
12,CTCCTGATCCTCTGCTCATCGTAGAAATCGCGATCGCCATCGGAGTCACCTAGTGCAG,11300 fluorescence intensity (a.u.)
13,TCACATTGTAACACACAGGCACTTTTGCTAGACCAAACAACGGAGTCACCTAGTGCAG,8040 fluorescence intensity (a.u.)
14,CCGGGACGTGTGCCGCCGCTTAAGCCCGCTCTTTATACGTCGGAGTCACCTAGTGCAG,9690 fluorescence intensity (a.u.)
15,GCCGTTCCTGGCCCCGCCGCCGCCGCCGCCACCGGGCCCGCGGAGTCACCTAGTGCAG,8830 fluorescence intensity (a.u.)
16,ATAACTGCACCACACGCGCTTACTCATCTCTCTCAACACGCGGAGTCACCTAGTGCAG,12000 fluorescence intensity (a.u.)
17,GTACCTTCGACGCTTCGCCTTGTCAGTCACTGTCCCCTTCCGGAGTCACCTAGTGCAG,8790 fluorescence intensity (a.u.)
18,TGTGTTTTTTTCCTTTGGGTGTGTGGTACTCTGTTGTATCCGGAGTCACCTAGTGCAG,10500 fluorescence intensity (a.u.)
19,AGTACTTGCCCTTTCCGTAGCGTGATGGTTGCGTTGGGTTCGGAGTCACCTAGTGCAG,8810 fluorescence intensity (a.u.)
20,TTCCGTGTACAACTTTGACTGTCCGTCTTATATAAAATTTCGGAGTCACCTAGTGCAG,9770 fluorescence intensity (a.u.)
21,TTGACAGCGGCGTTCTTCATTGCTGGTTTCTTAATACAATCGGAGTCACCTAGTGCAG,8080 fluorescence intensity (a.u.)
22,ATCTGGTCTCTGCTGCATGCATGGATTTGATCACCATTTACGGAGTCACCTAGTGCAG,8980 fluorescence intensity (a.u.)
23,CATCTTACCTTACGTCCACCGCATCTCATCCTTTGCTGTTCGGAGTCACCTAGTGCAG,12200 fluorescence intensity (a.u.)
24,TGTTGTGTGTTAGTTGTGGTGGTAGCATTTTTTCCTGGTACGGAGTCACCTAGTGCAG,13000 fluorescence intensity (a.u.)
25,TTTATTTGCGTTTAGGTCCTCGTCTGGACCTGGCTGCGATCGGAGTCACCTAGTGCAG,8500 fluorescence intensity (a.u.)
26,ATGCTGCATTTCATTTTGTTTTTGTTTTTTTTTTCATTTCCGGAGTCACCTAGTGCAG,8820 fluorescence intensity (a.u.)
27,GGGCAGAGATACAGTGTATTCATCGTGGTCATATGACCTCCGGAGTCACCTAGTGCAG,9790 fluorescence intensity (a.u.)

# Retrieved one by one from the entries so far (2):
row,Sequence,binding signal
7,TCTCCATGTCACGCCGGCTGCCACCACCACGGTATAAAATCGGAGTCACCTAGTGCAG,8990 fluorescence intensity (a.u.)
15,GCCGTTCCTGGCCCCGCCGCCGCCGCCGCCACCGGGCCCGCGGAGTCACCTAGTGCAG,8830 fluorescence intensity (a.u.)
